According to PMC10942982:
These are yes or no findings as the source states them, for the method shown. In cells and extracts the contact can be indirect. Some binding calls cover weakened binding; strength is not graded here. For part of these data: Tags and fused reporters may be left off the sequences shown.

T1: GFP-tagged wildtype VPS37A (human), Q8NEZ2
T1 chain: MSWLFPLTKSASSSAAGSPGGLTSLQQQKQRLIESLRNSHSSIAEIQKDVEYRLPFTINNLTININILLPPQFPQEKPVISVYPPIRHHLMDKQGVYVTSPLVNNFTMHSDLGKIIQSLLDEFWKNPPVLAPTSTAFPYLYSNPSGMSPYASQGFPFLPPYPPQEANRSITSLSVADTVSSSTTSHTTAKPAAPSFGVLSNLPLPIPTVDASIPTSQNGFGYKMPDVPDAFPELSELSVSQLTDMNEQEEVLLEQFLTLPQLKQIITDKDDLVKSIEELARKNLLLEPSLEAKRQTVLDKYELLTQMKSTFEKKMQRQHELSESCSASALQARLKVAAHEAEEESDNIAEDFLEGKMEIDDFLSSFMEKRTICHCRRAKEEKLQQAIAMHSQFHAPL


Key:
Assay in all cases: co-IP; GFP-Trap beads on total cell lysates in 0.5% NP-40 lysis buffer (10 mM Tris/Cl pH 7.5, 150 mM NaCl, 0.5 mM EDTA), washed three times with lysis buffer, immunoblotting
[1] = molecular target: T1, GFP-tagged wildtype VPS37A (human), …; settings: remark: other sources report otherwise
[2] = molecular target: GFP-tagged VPS37A mutant with both 3WLFP and 137FPYL motifs mutated to DDDD (human) (UniProt Q8NEZ2)
[3] = molecular target: GFP-tagged wildtype VPS37A (human) (UniProt Q8NEZ2)

Row | binding [1] | binding [2] | binding [3] | Binder
1 | binds |  |  | VPS28, Q9UK41 1-221 (protein) MFHGIPATPGIGAPGNKPELYEEVKLYKNAREREKYDNMAELFAVVKTMQALEKAYIKDCVSPSEYTAACSRLLVQYKAAFRQVQGSEISSIDEFCRKFRLDCPLAMERIKEDRPITIKDDKGNLNRCIADVVSLFITVMDKLRLEIRAMDEIQPDLRELMETMHRMSHLPPDFEGRQTVSQWLQTLSGMSASDELDDSQVRQMLFDLESAYNAFNRFLHA
2 |  | binds | binds | UBAP1 (protein, UniProt Q9NZ09 1-502) MASKKLGADFHGTFSYLDDVPFKTGDKFKTPAKVGLPIGFSLPDCLQVVREVQYDFSLEKKTIEWAEEIKKIEEAEREAECKIAEAEAKVNSKSGPEGDSKMSFSKTHSTATMPPPINPILASLQHNSILTPTRVSSSATKQKVLSPPHIKADFNLADFECEEDPFDNLELKTIDEKEELRNILVGTTGPIMAQLLDNNLPRGGSGSVLQDEEVLASLERATLDFKPLHKPNGFITLPQLGNCEKMSLSSKVSLPPIPAVSNIKSLSFPKLDSDDSNQKTAKLASTFHSTSCLRNGTFQNSLKPSTQSSASELNGHHTLGLSALNLDSGTEMPALTSSQMPSLSVLSVCTEESSPPNTGPTVTPPNFSVSQVPNMPSCPQAYSELQMLSPSERQCVETVVNMGYSYECVLRAMKKKGENIEQILDYLFAHGQLCEKGFDPLLVEEALEMHQCSEEKMMEFLQLMSKFKEMGFELKDIKEVLLLHNNDQDNALEDLMARAGAS
